Results published in the supplement of paper PMC10849652.
This is one part of the list.

Protein sequences, listed by entry. Tags and fused reporters are not part of them. Lines headed by an entry give the natural chain unless they say otherwise; changes in a name come on top.
UniProt Q9Y6W5, whole entry, looked up: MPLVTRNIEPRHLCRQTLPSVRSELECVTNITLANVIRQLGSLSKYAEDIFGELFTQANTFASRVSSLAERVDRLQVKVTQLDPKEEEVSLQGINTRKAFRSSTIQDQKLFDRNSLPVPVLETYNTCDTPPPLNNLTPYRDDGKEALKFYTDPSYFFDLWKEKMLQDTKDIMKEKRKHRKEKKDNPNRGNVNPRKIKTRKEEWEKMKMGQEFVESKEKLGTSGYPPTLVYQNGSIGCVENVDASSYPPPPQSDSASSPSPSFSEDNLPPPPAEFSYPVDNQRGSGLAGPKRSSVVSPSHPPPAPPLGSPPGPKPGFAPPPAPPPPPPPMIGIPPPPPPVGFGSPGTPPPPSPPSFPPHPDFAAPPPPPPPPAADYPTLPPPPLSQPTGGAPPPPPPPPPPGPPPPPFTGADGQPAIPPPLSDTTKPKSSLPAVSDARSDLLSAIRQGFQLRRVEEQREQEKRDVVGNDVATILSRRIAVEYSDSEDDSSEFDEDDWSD
UniProt Q9Y484: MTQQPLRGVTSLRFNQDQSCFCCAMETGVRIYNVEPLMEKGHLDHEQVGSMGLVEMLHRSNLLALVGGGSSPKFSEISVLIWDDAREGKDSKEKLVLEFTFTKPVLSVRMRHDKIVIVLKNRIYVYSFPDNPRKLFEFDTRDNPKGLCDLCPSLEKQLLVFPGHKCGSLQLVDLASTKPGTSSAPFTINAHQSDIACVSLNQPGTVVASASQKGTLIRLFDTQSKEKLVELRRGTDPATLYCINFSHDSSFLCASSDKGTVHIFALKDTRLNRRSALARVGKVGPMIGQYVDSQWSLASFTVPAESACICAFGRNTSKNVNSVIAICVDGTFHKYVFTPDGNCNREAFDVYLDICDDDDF
UniProt Q9P1Q0: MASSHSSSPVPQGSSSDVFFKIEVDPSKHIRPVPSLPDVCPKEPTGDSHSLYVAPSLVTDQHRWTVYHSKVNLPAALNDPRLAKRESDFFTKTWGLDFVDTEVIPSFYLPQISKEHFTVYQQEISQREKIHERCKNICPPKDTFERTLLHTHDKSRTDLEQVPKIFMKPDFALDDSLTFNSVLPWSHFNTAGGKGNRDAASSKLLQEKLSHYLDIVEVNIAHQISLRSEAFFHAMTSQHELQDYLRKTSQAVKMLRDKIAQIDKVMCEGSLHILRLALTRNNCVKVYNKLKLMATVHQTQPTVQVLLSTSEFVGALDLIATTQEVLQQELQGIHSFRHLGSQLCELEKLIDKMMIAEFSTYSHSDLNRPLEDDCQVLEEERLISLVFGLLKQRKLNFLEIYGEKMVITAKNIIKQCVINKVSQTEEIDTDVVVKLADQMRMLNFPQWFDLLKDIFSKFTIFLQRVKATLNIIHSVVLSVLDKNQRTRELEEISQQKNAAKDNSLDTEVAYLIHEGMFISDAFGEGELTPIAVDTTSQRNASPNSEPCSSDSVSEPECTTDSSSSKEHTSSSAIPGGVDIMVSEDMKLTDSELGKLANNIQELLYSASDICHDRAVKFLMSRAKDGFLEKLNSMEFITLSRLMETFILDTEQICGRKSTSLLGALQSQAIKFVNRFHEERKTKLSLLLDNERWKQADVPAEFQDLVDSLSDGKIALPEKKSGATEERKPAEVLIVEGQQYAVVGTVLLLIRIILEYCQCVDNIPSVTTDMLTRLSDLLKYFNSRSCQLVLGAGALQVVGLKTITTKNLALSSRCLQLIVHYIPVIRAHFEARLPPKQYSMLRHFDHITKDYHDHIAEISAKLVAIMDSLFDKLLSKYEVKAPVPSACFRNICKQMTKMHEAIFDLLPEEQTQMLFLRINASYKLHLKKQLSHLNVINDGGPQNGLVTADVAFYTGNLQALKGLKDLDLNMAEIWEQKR
UniProt Q5MNZ9: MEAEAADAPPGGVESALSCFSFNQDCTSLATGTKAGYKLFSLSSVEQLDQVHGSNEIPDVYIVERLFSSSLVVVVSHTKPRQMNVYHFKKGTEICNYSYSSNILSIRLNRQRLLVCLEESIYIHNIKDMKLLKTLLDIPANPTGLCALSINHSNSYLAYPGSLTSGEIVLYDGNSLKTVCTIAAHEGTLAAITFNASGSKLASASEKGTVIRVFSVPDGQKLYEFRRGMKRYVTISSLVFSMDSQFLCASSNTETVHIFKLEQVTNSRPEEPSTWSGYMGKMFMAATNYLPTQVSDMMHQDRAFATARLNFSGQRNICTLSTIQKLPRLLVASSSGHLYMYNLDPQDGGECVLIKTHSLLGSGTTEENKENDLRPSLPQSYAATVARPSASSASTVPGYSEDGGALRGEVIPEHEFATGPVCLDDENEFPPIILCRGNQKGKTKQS
UniProt Q9BV38: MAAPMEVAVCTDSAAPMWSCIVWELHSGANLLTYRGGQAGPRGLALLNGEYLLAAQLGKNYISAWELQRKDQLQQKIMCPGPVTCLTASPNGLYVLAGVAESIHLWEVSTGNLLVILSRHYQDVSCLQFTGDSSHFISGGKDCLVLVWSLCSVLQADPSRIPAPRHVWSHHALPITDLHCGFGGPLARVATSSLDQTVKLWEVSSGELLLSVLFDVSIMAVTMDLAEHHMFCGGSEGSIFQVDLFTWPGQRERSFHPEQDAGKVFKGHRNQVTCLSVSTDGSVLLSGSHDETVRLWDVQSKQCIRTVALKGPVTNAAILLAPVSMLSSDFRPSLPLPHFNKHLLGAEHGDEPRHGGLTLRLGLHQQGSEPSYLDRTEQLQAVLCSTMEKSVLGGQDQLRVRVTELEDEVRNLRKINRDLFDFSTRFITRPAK
UniProt O00534: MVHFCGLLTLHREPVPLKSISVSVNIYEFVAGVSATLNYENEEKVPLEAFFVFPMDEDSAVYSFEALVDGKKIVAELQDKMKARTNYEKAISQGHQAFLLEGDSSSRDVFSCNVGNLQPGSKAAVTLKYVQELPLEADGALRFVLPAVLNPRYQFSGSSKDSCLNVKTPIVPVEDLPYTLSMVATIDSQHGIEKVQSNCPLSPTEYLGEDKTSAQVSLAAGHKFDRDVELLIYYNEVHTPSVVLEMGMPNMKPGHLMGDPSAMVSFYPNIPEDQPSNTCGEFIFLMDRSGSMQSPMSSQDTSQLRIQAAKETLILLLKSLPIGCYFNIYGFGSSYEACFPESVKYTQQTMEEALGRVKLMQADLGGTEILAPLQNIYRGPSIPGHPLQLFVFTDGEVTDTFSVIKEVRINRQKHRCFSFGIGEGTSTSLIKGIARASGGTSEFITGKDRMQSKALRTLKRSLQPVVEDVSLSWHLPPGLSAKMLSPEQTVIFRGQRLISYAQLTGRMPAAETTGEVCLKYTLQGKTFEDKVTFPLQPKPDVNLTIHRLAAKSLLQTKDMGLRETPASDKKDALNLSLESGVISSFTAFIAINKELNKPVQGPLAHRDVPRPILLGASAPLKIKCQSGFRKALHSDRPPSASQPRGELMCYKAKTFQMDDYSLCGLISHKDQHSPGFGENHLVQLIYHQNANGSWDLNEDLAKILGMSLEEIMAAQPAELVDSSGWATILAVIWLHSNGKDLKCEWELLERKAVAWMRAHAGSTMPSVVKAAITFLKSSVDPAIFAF
UniProt Q9BQA1, whole entry, looked up: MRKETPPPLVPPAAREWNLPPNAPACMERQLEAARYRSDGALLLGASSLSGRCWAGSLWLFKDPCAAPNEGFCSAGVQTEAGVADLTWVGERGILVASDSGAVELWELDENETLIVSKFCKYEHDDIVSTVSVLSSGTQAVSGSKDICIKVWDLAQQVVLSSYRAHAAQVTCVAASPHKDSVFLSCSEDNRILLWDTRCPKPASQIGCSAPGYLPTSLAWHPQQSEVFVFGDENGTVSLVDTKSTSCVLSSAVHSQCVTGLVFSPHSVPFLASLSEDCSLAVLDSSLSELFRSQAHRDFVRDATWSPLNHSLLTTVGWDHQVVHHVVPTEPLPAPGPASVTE
UniProt A3KMH1: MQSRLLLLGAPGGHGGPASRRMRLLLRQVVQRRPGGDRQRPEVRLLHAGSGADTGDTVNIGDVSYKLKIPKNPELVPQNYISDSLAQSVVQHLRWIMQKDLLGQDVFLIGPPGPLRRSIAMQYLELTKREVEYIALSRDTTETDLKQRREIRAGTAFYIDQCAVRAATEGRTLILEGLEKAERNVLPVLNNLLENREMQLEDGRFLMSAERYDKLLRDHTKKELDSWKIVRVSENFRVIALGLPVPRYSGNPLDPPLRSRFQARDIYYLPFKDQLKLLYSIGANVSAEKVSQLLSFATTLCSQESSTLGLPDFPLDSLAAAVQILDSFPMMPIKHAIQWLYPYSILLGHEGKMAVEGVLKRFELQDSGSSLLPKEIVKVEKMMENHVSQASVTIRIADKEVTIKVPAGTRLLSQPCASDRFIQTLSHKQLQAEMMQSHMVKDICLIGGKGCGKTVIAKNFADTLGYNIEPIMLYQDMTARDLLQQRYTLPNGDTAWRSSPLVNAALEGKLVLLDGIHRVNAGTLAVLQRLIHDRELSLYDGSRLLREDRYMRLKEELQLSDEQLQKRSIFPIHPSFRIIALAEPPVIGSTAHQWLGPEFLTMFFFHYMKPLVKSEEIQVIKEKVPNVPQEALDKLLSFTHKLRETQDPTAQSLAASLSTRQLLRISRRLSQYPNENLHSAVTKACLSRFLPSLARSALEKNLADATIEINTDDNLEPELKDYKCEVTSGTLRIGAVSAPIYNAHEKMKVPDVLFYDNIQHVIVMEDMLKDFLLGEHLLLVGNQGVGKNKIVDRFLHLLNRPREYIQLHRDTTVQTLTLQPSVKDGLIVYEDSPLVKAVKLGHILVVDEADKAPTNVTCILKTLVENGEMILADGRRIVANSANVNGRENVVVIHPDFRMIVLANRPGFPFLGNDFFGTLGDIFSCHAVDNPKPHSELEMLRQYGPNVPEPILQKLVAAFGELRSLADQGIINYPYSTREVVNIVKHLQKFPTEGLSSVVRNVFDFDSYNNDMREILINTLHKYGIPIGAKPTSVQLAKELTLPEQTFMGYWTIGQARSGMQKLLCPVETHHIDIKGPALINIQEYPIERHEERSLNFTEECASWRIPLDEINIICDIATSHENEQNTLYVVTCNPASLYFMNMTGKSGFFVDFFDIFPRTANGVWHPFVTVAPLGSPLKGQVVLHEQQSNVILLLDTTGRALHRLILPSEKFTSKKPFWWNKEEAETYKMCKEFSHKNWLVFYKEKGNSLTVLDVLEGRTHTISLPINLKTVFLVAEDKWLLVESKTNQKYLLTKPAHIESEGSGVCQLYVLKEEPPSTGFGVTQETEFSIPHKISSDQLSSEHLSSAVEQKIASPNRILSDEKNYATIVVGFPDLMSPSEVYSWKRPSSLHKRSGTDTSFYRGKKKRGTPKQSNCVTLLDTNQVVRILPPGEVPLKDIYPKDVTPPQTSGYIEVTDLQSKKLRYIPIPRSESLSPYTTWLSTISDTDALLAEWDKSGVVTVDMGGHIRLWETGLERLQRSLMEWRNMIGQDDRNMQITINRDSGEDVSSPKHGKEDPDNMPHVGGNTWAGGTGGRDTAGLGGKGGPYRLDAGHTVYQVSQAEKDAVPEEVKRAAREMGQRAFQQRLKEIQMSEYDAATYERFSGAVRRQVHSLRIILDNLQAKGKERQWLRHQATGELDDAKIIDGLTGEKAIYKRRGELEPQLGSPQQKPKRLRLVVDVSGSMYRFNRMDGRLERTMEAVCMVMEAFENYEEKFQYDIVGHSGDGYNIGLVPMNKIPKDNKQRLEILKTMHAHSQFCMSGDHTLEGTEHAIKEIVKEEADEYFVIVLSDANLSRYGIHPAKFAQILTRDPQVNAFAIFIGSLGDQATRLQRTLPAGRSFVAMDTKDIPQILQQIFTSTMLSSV
UniProt Q96HA8: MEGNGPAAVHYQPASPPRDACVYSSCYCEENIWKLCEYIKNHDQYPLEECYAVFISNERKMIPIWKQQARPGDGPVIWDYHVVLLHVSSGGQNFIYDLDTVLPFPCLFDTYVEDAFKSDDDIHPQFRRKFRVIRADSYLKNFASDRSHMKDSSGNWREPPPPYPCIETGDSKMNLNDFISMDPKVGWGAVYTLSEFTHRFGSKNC
UniProt Q5T750: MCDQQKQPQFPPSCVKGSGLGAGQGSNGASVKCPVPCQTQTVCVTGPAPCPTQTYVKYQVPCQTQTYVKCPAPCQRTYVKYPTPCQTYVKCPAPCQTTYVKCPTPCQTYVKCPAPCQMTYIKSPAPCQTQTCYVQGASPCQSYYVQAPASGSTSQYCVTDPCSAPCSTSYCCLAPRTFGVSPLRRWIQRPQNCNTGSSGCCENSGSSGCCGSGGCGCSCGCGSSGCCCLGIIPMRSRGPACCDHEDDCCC

What was measured:
Test in all cases: log2 fold change, soluble protein after heating vs DMSO (PISA); higher = thermal stabilisation; K562 lysate, 10 uM; active = over 0.2 and 3.5 SD of the protein, either way, in both replicates (recomputed)
ibrutinib = compound: C=CC(=O)N1CCC[C@@H](n2nc(-c3ccc(Oc4ccccc4)cc3)c3c(N)ncnc32)C1 [ibrutinib]
In short: (§1)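 Quantification was by TMTpro 16plex LC-MS/MS with equalised channel sums, applied to the supernatant after 21,000xg for 90 min. Samples were crude K562 extract at 1 mg/mL protein in PBS pH 7.4 with 1 mM MgCl2, treated with 10 μM compound for 30 min, heated for 3 min across 48°C-58°C, pooled and brought to 0.5% NP-40 at 4°C. Values are log-two fold changes in thermal stability relative to solvent controls, from duplicates.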

[1] = compound: CC(=O)c1cnc2ccc(-c3cc(Cl)c(O)c(Cl)c3)nc2c1N[C@H]1CC[C@H](CN(C)C)CC1
In short: as §1

ralimetinib = compound: CC(C)(C)Cn1c(N)nc2ccc(-c3[nH]c(C(C)(C)C)nc3-c3ccc(F)cc3)nc21 [ralimetinib]
In short: as §1

[2] = compound: CC(C)(O)CC(=O)NCCn1ccc2ncnc(Nc3ccc(Oc4cccc(C(F)(F)F)c4)c(Cl)c3)c21
In short: as §1

[3] = compound: CC(C)C1=C2N=C(C=C(N2N=C1)NCC3=CC=CC=C3)NCCCCCCN
In short: as §1

[4] = compound: CC1=C(C(CC(=O)N1)C2=CC=C(C=C2)C(F)(F)F)C(=O)NC3=C(C=C4C(=C3)C=NN4)F
In short: as §1

[5] = compound: CC1=C(C2=C(C=C1)C(=O)C3=CC=CC=C3N2CCCN)C
In short: as §1

[6] = compound: CC1=C(C=C(C=C1)NC(=O)C2=CC(=CC=C2)C(C)(C)C#N)NC3=CC4=C(C=C3)N=CN(C4=O)C
In short: as §1

[7] = compound: CC1=C(C=C(C=C1)NC(=O)C2=CC(=CC=C2)N(C)C)NC(=O)C3=CC=C(C=C3)O
In short: as §1

[8] = compound: CC1=CC=C(C=C1)SC2=C3C=C(SC3=CN=C2)C(=O)N
In short: as §1

Measured: log2 fold change

WASF2 (UniProt Q9Y6W5)
inactive: ibrutinib -0.023 | [1] 0.01 | ralimetinib 0.032 | [2] 0.018 | [3] -0.011 | [4] 0.011 | [5] -0.001 | [6] -0.026 | [7] 0.018 | [8] 0.004

WDR12 (UniProt Q9GZL7)
inactive: ibrutinib 0 | [1] 0.004 | ralimetinib 0.048 | [2] 0.014 | [3] -0.005 | [4] -0.023 | [5] 0.011 | [6] -0.034 | [7] 0.005 | [8] -0.009

WDR45 isoform 2 (UniProt Q9Y484)
inactive: ibrutinib 0.018 | [1] 0.014 | ralimetinib 0.13 | [2] 0.111 | [3] -0.008 | [4] 0.014 | [5] 0.028 | [6] -0.04 | [7] -0.014 | [8] -0.036

WDFY1 (UniProt Q8IWB7)
inactive: ibrutinib -0.042 | [1] -0.003 | ralimetinib 0.032 | [2] -0.032 | [3] -0.072 | [4] -0.053 | [5] 0.01 | [6] 0.059 | [7] 0.061 | [8] -0.042

VPS54 (UniProt Q9P1Q0)
inactive: ibrutinib 0.048 | [1] -0.059 | ralimetinib -0.122 | [2] -0.267 | [3] -0.004 | [4] 0.038 | [5] 0.04 | [6] 0.144 | [7] 0.066 | [8] -0.037

WAPL isoform 3 (UniProt Q7Z5K2)
inactive: ibrutinib 0.01 | [1] -0.009 | ralimetinib 0.016 | [2] 0.049 | [3] -0.017 | [4] 0.192 | [5] -0.011 | [6] 0.031 | [7] 0.015 | [8] -0.015

Quoted at random: 2 records from the list.
WDR12 (UniProt Q9GZL7)
inactive: ibrutinib 0 | [1] 0.004 | ralimetinib 0.048 | [2] 0.014 | [3] -0.005 | [4] -0.023 | [5] 0.011 | [6] -0.034 | [7] 0.005 | [8] -0.009

WAPL isoform 3 (UniProt Q7Z5K2)
inactive: ibrutinib 0.01 | [1] -0.009 | ralimetinib 0.016 | [2] 0.049 | [3] -0.017 | [4] 0.192 | [5] -0.011 | [6] 0.031 | [7] 0.015 | [8] -0.015

(further entries)

WIPI1 (UniProt Q5MNZ9)
inactive: ibrutinib 0.098 | [1] -0.062 | ralimetinib 0.002 | [2] 0.019 | [3] -0.008 | [4] 0.1 | [5] -0.023 | [6] -0.005 | [7] -0.009 | [8] -0.033

VPS29 isoform 2 (UniProt Q9UBQ0)
inactive: ibrutinib 0.04 | [1] -0.029 | ralimetinib -0.048 | [2] -0.025 | [3] 0.012 | [4] -0.056 | [5] 0.017 | [6] 0.039 | [7] -0.028 | [8] -0.004

VPS8 (UniProt Q8N3P4)
inactive: ibrutinib -0.012 | [1] -0.003 | ralimetinib 0.035 | [2] -0.05 | [3] -0.02 | [4] -0.022 | [5] -0.043 | [6] 0.024 | [7] -0.042 | [8] -0.006

WDR18 (UniProt Q9BV38)
inactive: ibrutinib -0.011 | [1] 0.004 | ralimetinib 0.046 | [2] -0.001 | [3] -0.026 | [4] -0.007 | [5] -0.067 | [6] 0.027 | [7] 0.043 | [8] -0.022

WEE1 (UniProt P30291)
inactive: ibrutinib -0.028 | [1] 0.139 | ralimetinib -0.017 | [2] -0.062 | [3] -0.031 | [4] -0.032 | [5] -0.012 | [6] 0.023 | [7] -0.105 | [8] -0.038

VRK3 (UniProt Q8IV63)
inactive: ibrutinib 0.031 | [1] -0.045 | ralimetinib 0.009 | [2] -0.014 | [3] -0.025 | [4] 0.006 | [5] -0.04 | [6] -0.031 | [7] 0.023 | [8] 0.168

VPS13A (UniProt Q96RL7)
inactive: ibrutinib 0.011 | [1] -0.006 | ralimetinib 0.015 | [2] 0.02 | [3] 0.017 | [4] 0.233 | [5] 0.02 | [6] -0.053 | [7] 0.071 | [8] -0.024

VPS26C (UniProt O14972)
inactive: ibrutinib 0.031 | [1] -0.025 | ralimetinib 0.018 | [2] -0.055 | [3] -0.016 | [4] -0.058 | [5] 0.023 | [6] 0.033 | [7] 0.059 | [8] 0

VWA5A (UniProt O00534)
inactive: ibrutinib 0.037 | [1] -0.008 | ralimetinib 0.002 | [2] -0.025 | [3] 0.006 | [4] 0.021 | [5] -0.089 | [6] -0.002 | [7] -0.022 | [8] -0.013

WDR61 (UniProt Q9GZS3)
inactive: ibrutinib 0.035 | [1] -0.016 | ralimetinib 0.049 | [2] 0.073 | [3] 0.011 | [4] 0.009 | [5] -0.001 | [6] 0.027 | [7] -0.016 | [8] 0.034

WASF1 (UniProt Q92558)
inactive: ibrutinib -0.018 | [1] -0.01 | ralimetinib -0.044 | [2] 0.02 | [3] -0.015 | [4] 0.063 | [5] -0.065 | [6] 0.065 | [7] -0.027 | [8] -0.045

WDR44 (UniProt Q5JSH3)
inactive: ibrutinib 0.009 | [1] -0.021 | ralimetinib 0.012 | [2] -0.027 | [3] 0.001 | [4] -0.007 | [5] -0.004 | [6] 0.002 | [7] -0.002 | [8] -0.014

WASHC2A (UniProt Q641Q2)
inactive: ibrutinib 0.001 | [1] -0.007 | ralimetinib -0.009 | [2] -0.014 | [3] -0.02 | [4] -0.01 | [5] -0.037 | [6] 0.002 | [7] 0.013 | [8] -0.027

VPS36 (UniProt Q86VN1)
inactive: ibrutinib -0.017 | [1] -0.007 | ralimetinib -0.014 | [2] -0.037 | [3] -0.016 | [4] -0.018 | [5] -0.006 | [6] -0.003 | [7] 0.001 | [8] 0.004

WRAP53 (UniProt Q9BUR4)
inactive: ibrutinib 0.091 | [1] -0.065 | ralimetinib 0.052 | [2] -0.025 | [3] -0.042 | [4] 0.035 | [5] 0.042 | [6] 0.041 | [7] 0.019 | [8] 0.012

WDR36 (UniProt Q8NI36)
inactive: ibrutinib -0.02 | [1] -0.01 | ralimetinib 0.019 | [2] -0.004 | [3] 0.03 | [4] 0.048 | [5] 0 | [6] 0.019 | [7] 0.013 | [8] 0.033

WASL (UniProt O00401)
inactive: ibrutinib 0.023 | [1] 0.005 | ralimetinib -0.04 | [2] -0.058 | [3] 0.061 | [4] 0.038 | [5] 0.007 | [6] 0.014 | [7] 0.02 | [8] 0.002

VPS16 (UniProt Q9H269)
inactive: ibrutinib 0.009 | [1] 0.017 | ralimetinib -0.012 | [2] -0.038 | [3] -0.014 | [4] -0.015 | [5] -0.029 | [6] 0.019 | [7] 0.031 | [8] 0

WDR77 (UniProt Q9BQA1)
inactive: ibrutinib 0.016 | [1] 0.022 | ralimetinib 0.031 | [2] 0.024 | [3] -0.012 | [4] -0.022 | [5] -0.004 | [6] 0.007 | [7] -0.01 | [8] 0.032

VPS45 (UniProt Q9NRW7)
inactive: ibrutinib 0.07 | [1] 0.017 | ralimetinib 0.039 | [2] -0.006 | [3] 0.022 | [4] -0.015 | [5] -0.026 | [6] -0.012 | [7] 0.016 | [8] -0.006

VWA8 (UniProt A3KMH1)
inactive: ibrutinib -0.084 | [1] -0.509 | ralimetinib 0.001 | [2] -0.208 | [3] 0.001 | [4] 0 | [5] -0.066 | [6] 0.005 | [7] 0.039 | [8] 0.056

VPS33A (UniProt Q96AX1)
inactive: ibrutinib 0.024 | [1] -0.01 | ralimetinib 0.039 | [2] 0.005 | [3] -0.003 | [4] 0.008 | [5] 0.013 | [6] 0.013 | [7] 0.043 | [8] -0.032

WDYHV1 (UniProt Q96HA8)
inactive: [1] 0.038 | ralimetinib -0.027 | [2] 0.197 | [3] -0.144 | [4] 0.068 | [5] 0.017 | [6] 0.013 | [7] 0.091 | [8] 0.088

XP32 (UniProt Q5T750)
inactive: [6] 0.097
